Laboratory results taken from the supplement of paper PMC10338343.
± gives the standard deviation. This is a selection; strong and weak results do not stand in their true shares. Many of these values have a large error.

Tested on: MIWI (PIWIL1) piRISC loaded with L1MC piRNA (30 nt)
Test: pre-steady-state target cleavage rate (min^-1); MIWI and MILI are mouse PIWI proteins and EfPiwi is from a freshwater sponge; tags in brackets are library labels; higher = faster piRNA-guided slicing of the target
Details: guide: L1MC piRNA 5'p-UAACUAAAUACUAUGCAAGCUGUAGGUCCU
Procedure, shortened: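 Using HEPES–potassium acetate buffer at 33 °C, 1 nM active affinity-purified piRISC with a single synthetic guide was mixed with 0.1 nM transcribed, DNA-blocked target RNA library for 0–8 or 0–960 min, with or without 500 nM GTSF1 partner protein. Uncleaved targets were sequenced and normalised to depth and to weakly complementary targets, and three trials were pooled with k3 capped at 0.0001 min^-1. A burst-and-steady-state fit gave the pre-steady-state cleavage rate.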

[1] = auxiliary factor: none (no GTSF1)
[2] = auxiliary factor: 500 nM mouse GTSF1

| Sequence | pre-steady-state target cleavage rate [1] | pre-steady-state target cleavage rate [2] |
| --- | --- | --- |
| UCGACCUACAGCUUGCAUAGUUAAUAGAAA | 0.00106 ± 0.0058 |  |
| UCGACCUACAGCUUGCUUAGUAUUUACAAA | 0.00231 ± 0.0027 |  |
| UCCACCUACAGGAUGCAUAGUAUUUAGAAA | 0.000876 ± 0.0046 |  |
| UGGACCUACAGCUACGAUAGUAUUUACAAA | 0.000633 ± 0.0084 |  |
| UCCUGGAUGUCGAACGAUACUAUUAAGUUA | 0.00023 ± 0.025 |  |
| UCGACCUACAGCUUGGUAAGUAUUUAGAAA | 0.000592 ± 0.009 |  |
| UCCACCUACAGCUUGCAAUAGUAUUUAGUUA | 0.00113 ± 0.0066 |  |
| UCCUGGAUGUCGAACGUAUCUUAUUUAGUUA |  | 0.00038 ± 0.011 |
| UGGACCUACAGCUAGCAUAGUAUUUAGUUA |  | 1.41 ± 0.074 |
| UCGACCUACAGCUUGCUAUGUAUUUACAAA | 0.000612 ± 0.0077 |  |
| UCCACCUACUCGUUGCAUAGUAUUUAGAAA | 0.00168 ± 0.0025 |  |
| UCCACCUACAGCUUGGAUAGUAUUUACAAA | 0.00139 ± 0.0028 |  |
| UCCACCUACACGUUGCAUAGUAUUUACAAA | 0.0011 ± 0.0055 |  |
| UCCACCUACAGCUUGCAUAGUAAAAAGUAA | 0.000908 ± 0.0078 |  |
| UCGACCUACAGCUUGCAUUCAAUUUAGAAA | 0.000649 ± 0.0093 |  |
| UCCACCUACAGCUUGCAUAGUAUUAGUUA | 0.00119 ± 0.0064 |  |
| UCCUGGAUCAGCUUGCAUAGUAAAAUCAAA [g9:g22:cont:t1A] | 0.000358 ± 0.0087 |  |
| AGGACCUACAGCUUGCAUAGAUUUUACAAA | 0.00125 ± 0.0061 |  |
| UCCUGGAUGUCGAACGAUAGUAUUAAGUAA | 0.000136 ± 0.031 |  |
| ACCUCCUACAGCUUGCAUAGUAUUUACAAA | 0.00297 ± 0.0035 |  |
| UCCACCUACAGCUUGACAUAGUAUUUAGUUA | 0.00235 ± 0.0029 |  |
| UGGACCUACAGCAAGCAUAGUAUUUACAAA | 0.000689 ± 0.0069 |  |

2 entries from above, bar-delimited.
Sequence | pre-steady-state target cleavage rate [1] | pre-steady-state target cleavage rate [2]
UCCACCUACAGGAUGCAUAGUAUUUAGAAA | 0.000876 ± 0.0046 | 
UCGACCUACAGCUUGGUAAGUAUUUAGAAA | 0.000592 ± 0.009 | 

(further entries)

| Sequence | pre-steady-state target cleavage rate [1] | pre-steady-state target cleavage rate [2] |
| --- | --- | --- |
| AGGACCUACAGCUUGCAUACAAUUUACAAA | 0.00113 ± 0.0076 |  |
| AGGACCUACAGCAUGCAUAGUAUUUAGUUA |  | 1.33 ± 0.06 |
| UGGACCUACAGCUUGCUAAGUAUUUAGAAA | 0.000406 ± 0.0068 |  |
| UCCACCUUGUGCUUGCAUAGUAUUUAGAAA | 0.00211 ± 0.0024 |  |
| UCCUGGAUGUCGAACCUUAGUAUAUAGUUA | 0.000191 ± 0.023 |  |
| AGGACCUACAGCUACGAUAGUAUUUAGUUA | 0.00108 ± 0.0049 |  |
| UCCUCCUACAGCUUGCAUAGUAUUUUCAAA [g6:g26:cont:t1A] | 0.00187 ± 0.0052 |  |
| UCCUGGAUGUCGAUGCAUUCAAUUUAGUUA | 0.000514 ± 0.011 |  |
| UGGACCUACAGGAAGCAUAGUAUUUACAAA | 0.000887 ± 0.0073 |  |
| UGGACCUACAGCUUCCAUACUAUUUAGUUA | 0.000719 ± 0.0064 |  |
| UGGACCCUACAGCUUGCAUAGUAUUUAGUUA |  | 1.42 ± 0.074 |
| UCGACCUACAGCUUGCUAAGUAUUUAGAAA | 0.000484 ± 0.0066 |  |
| UGGACCUACAGCUUGCAUGGUAUUUAGUUA |  | 1.38 ± 0.079 |
| UCCACCUACAGCUUCGUUAGUAUUUUCAAA | 0.000178 ± 0.016 |  |
| UCCUCCUACAGCUUGCCAUAGUAUUUAGUUA | 0.00159 ± 0.0039 |  |
| AGGACCUACAGCAUCCAUAGUAUUUAGUUA | 0.00243 ± 0.0027 |  |
| UGGACCUACAGCUUGCAUAGUAAAUACAAA | 0.000237 ± 0.012 |  |
| UCGACCUACAGCUUGCAAUCUAUUUACAAA | 0.000258 ± 0.013 |  |
| UCGACCUACAGCUUGCACUAGUAUUUAGUUA | 0.00101 ± 0.0082 |  |
| UCCUGGAUGUCGAACGUUAGUAUUUUAGUUA |  | 0.000433 ± 0.014 |
| UCCUGGAUGUCCUUCCAUAGUUUUUAGUUA |  | 0.00298 ± 0.0051 |
| UCCACCUACAGCUUGCAUAGUAUAAUGUAA | 0.00197 ± 0.0039 |  |

| Sequence | pre-steady-state target cleavage rate [1] | pre-steady-state target cleavage rate [2] |
| --- | --- | --- |
| AGGACCUACAGCUUGCAUAGUAUUAUGUAA | 0.00264 ± 0.0037 |  |
| UCCUGGAUGUCGAACGAAAGUAUUAAGUUA | 0.00017 ± 0.029 |  |
| UCGACCUACAGCUUGCAUAGUAUUAUAGUUA |  | 1.32 ± 0.076 |
| AGGACCUACAGCUACCAUAGUAUUUUCAAA | 0.000488 ± 0.012 |  |
| UCCUGGAUGUCGAAGCAUAGAUAUUAGUUA | 0.000617 ± 0.011 |  |
| UCCUGGAUGUCGAACGUAAGUAUUUCGUUA |  | 0.00024 ± 0.02 |
| UCGACCUACAGCUCGCAUAGUAUUUAGUUA |  | 1.55 ± 0.04 |
| UCGACCUACAGCUUGCAUGGUAUUUAGUUA |  | 1.73 ± 0.084 |
| UGGACCUACAGCGUGCAUAGUAUUUAGUUA |  | 1.43 ± 0.065 |
| UCGACCUACAGCUUGCAUAGUUUUUACAAA | 0.00214 ± 0.0039 |  |
| UGGACCUACAGCUUGCAUUCUAUUUACAAA | 0.000715 ± 0.0066 |  |
| UGGACCUACACGUUGCAUAGUAUUUACAAA | 0.00146 ± 0.0044 |  |
| UCCUGGAUGUCGAAGCAUUAGUAUUUAGUUA | 0.000593 ± 0.0097 |  |
| UGGACCUACAGGAUGCAUAGUAUUUACAAA | 0.00188 ± 0.0028 |  |
| AGGACCUACAGCUUCGAUAGUAUUUAGUUA | 0.00213 ± 0.0025 |  |
| UCCACCUACAGCUUGCAUAGUUAUUAGUAA | 0.00238 ± 0.0034 |  |
| UCCACCUACAGCUUGGUUAGUAUUUUCAAA | 0.000276 ± 0.009 |  |
| UCCACCUACAGCUUGCAUAGUAAAAAGUUA | 0.00205 ± 0.0027 |  |
| UGGACCUACAGCUUCCAUAGUAUUUAGAUA | 0.000722 ± 0.0063 |  |
| UCGACCUACAGCAACCAUAGUAUUUAGUAA | 0.000799 ± 0.0073 |  |
| UGGACCUACAGCUUGCAUAUGUAUUUAGUUA | 0.000759 ± 0.0078 |  |
